# Among all 320,000 compounds or so, about 22,000 (6.9%) were called active. Inconclusive means that the source gave no clear call. Such entries were picked first, then a sample of the others. The call rests on the fitted dose curve; in most records, active means well fitted inhibition curve with a large enough effect; inconclusive means small, poorly fitted or top-dose-only effect, or another doubt; inactive means no such curve, though single readings can be large or run the other way. Where the call is inconclusive, the potency comes from a doubtful curve fit.
# Experiment: Primary qHTS for delayed death inhibitors of the malarial parasite plastid, 96 hour incubation
# Conditions: P. falciparum luciferase reporter growth; series mostly up to 28.7 µM; activity change, negative = inhibition: at the top concentration
# Procedure, shortened: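 Infected RBCs, 2% Hct / 0.05% parasitemia final; luciferase-reporter P. falciparum; cpd 96 h, 37 C, 5% CO2; luciferase detection reagent; luminescence.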
# On the % scale 0 is the no-effect control and ±100 the full control effect; potency means the concentration at half of the fitted maximal effect.
SMILES,"activity change, negative = inhibition",Potency
C/C(=N\Nc1ccc(F)cc1F)c1ccc(N2CCOCC2)cc1,inactive: 75.5%,–
COc1ccccc1Sc1nc(-c2ccccc2)ncc1OC,–,"inconclusive: 0.928 µM [inhibitor, full curve]"
COc1cc(CNn2cn[nH]c2=S)cc(Cl)c1OCc1ccccc1,–,"inconclusive: 4.65 µM [inhibitor, single point]"
Cc1ccc(/C=N/n2c(C3CCCCC3)n[nH]c2=S)cc1,–,"inconclusive: 16.5 µM [inhibitor, single point]"
C=CCNC(=O)/C(C#N)=C\c1cc(Cl)c(O)c(OCC)c1,–,"inconclusive: 18.5 µM [inhibitor, single point]"
Cc1cccc(C)c1NC(=S)N=Nc1c(O)n(C)c2ccc(S(=O)(=O)N3CCOCC3)cc12,–,"inconclusive: 3.29 µM [inhibitor, partial curve, poor fit]"
CC(=O)c1c(O)n(-c2cccc(Cl)c2)c(=O)[nH]c1=O (tested in a mixture with another compound),inactive: -36.2%,–
COc1ccc(N2CCN(C(=O)c3ccc(CS(=O)(=O)c4ccc(Br)cc4)o3)CC2)cc1,–,"inconclusive: 11.7 µM [inhibitor, single point]"
O=C(NCc1cccc(C(F)(F)F)c1)C1CC(c2c(Cl)cccc2Cl)=NO1 (centres undefined),inactive: 5.1%,–
CCCn1c(N2CCN(CC(=O)Nc3ccc4c(c3)OCCO4)CC2)nc2ccccc21,–,"inconclusive: 2.94 µM [inhibitor, partial curve, poor fit]"
COc1ccc(NS(=O)(=O)c2cccc(C(=O)N(C)CC(=O)Nc3ccc(C)cc3)c2)cc1,–,"inconclusive: 18.5 µM [inhibitor, single point]"
COc1ccc(NC(=O)C2CC(=O)N(C(C)C)C2)cc1 (centres undefined),inactive: -11.2%,–
O=C(NCCCN1CCCC1=O)Nc1ccc(Br)cc1Cl,–,active: 10.4 µM
O=C(/C=C/c1cccc(Cl)c1)NCCCN1CCOCC1,–,"inconclusive: 18.5 µM [inhibitor, partial curve, poor fit]"
COc1ccc(-c2nnn(CC(=O)c3ccccc3)n2)cc1OC,–,"inconclusive: 0.0657 µM [inhibitor, full curve, poor fit]"
CC1(c2ccccc2)CC(C)(C)N2C(=O)Cc3cccc1c32 (centres undefined),inactive: 41.9% [at 5.75 µM],–
CCOc1ccccc1OCC(=O)N/N=C(\C)Cc1ccc(OC)cc1,–,"inconclusive: 18.5 µM [inhibitor, single point]"
Cc1ccc(S(=O)(=O)NCC2CCC(C(=O)O)CC2)cc1 (centres undefined),inactive: -7.19%,–
O=C(O)CCC(=O)Nc1sc2c(c1C(=O)Nc1cccc3ccccc13)CCCCC2,–,"inconclusive: 18.5 µM [inhibitor, single point]"

# Full records, looked up by structure. Values in the order: activity change, negative = inhibition	Potency
# CC1(c2ccccc2)CC(C)(C)N2C(=O)Cc3cccc1c32 (centres undefined) is listed with inactive: 41.9% [at 5.75 µM]	–
# Cc1ccc(/C=N/n2c(C3CCCCC3)n[nH]c2=S)cc1 is listed with –	inconclusive: 16.5 µM [inhibitor, single point]
